From paper PMC12440877

Molecular target: T1, Interferon-induced transmembrane protein 1 (IFITM1) (mouse (endogenous in NIH-3T3)) (UniProt Q9D103)
T1 sequence: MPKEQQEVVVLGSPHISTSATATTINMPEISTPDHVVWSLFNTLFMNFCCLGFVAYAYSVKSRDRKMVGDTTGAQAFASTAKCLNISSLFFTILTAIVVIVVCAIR
Assay: affinity purification with mass spectrometry; NIH-3T3 lysate; anti-IFITM1 antibody or IgG on magnetic beads; eluate run on SDS-PAGE, then mass spectrometry; IgG group against IFITM1 group

B1: CBR4 (protein, UniProt Q91VT4 1-236)
chain: MDKVCAVFGGSRGIGRAVAQLMAQKGYRLAIVSRNLEVAKVTAGELGGNHLAFRCDVAKEQDVQSTFQEMEKHLGPVNFLVNAAGINRDSLLVRTKTEDMISQLHTNLLGSMLTCKAAMKTMIQQGGSIVNVGSIIGLKGNVGQSAYSATKGGLVGFSRSLAKEVARKKIRVNVVAPGFIRTDMTRHLKEEHFKKNIPLGRFGETLEVAHAVVFLLESPYITGHVLIVDGGLQLTV
- binding: binds

Results are given in words; binding and its absence hold for the method and conditions named. In cells and extracts the contact can be indirect. Here binding means that the protein was enriched with, or labelled near, the bait; the list need not be complete.
